The supplement of paper PMC10338343
± gives the standard deviation. The entries are a selection whose mix differs from that of the whole data set. The uncertainty is large for many entries.

What follows are sequences tested on MIWI (PIWIL1) piRISC loaded with piRNA #2 (30 nt) (assay: pre-steady-state target cleavage rate (min^-1); MIWI and MILI are mouse PIWI proteins and EfPiwi is from a freshwater sponge; tags in brackets are library labels; higher = faster piRNA-guided slicing of the target). Conditions: guide: piRNA #2 5'p-UUAGGUAACCCAGUAGAUCCAGAGGAAUUC; auxiliary factor: 500 nM mouse GTSF1.
Method: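 Cleave-'n-Seq: a library of target RNAs (target site embedded in constant flanks, ACAGCATTCCGCGTTAGTGATATCCG... 5' flank; DNA-blocked outside the site) at 0.1 nM was incubated with 1 nM active mouse MILI or MIWI piRISC (synthetic 5'-monophosphorylated piRNA guide) with or without 500 nM mouse GTSF1 at 33 °C for 1 min to 16 h. Uncleaved targets were sequenced and normalised to non-target controls, and the pooled three trials were fitted to a burst-and-steady-state model to give the pre-steady-state cleavage rate (min^-1; k3 is constrained to at most 1e-4). Sequence is the target site only; target names encode pairing extent (gX:gY) and contiguous / 1-mismatch / 2-mismatch / bulge geometry. Fits with R² ≤ 0 are excluded.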

Sequence | pre-steady-state target cleavage rate
CUUAAGGAGACCUAGAUCUGGGAAUCCUAA | 0.000424 ± 0.018
CAAUUCGACUGGAUCUACUGGGUUACCUAA | 0.357 ± 0.05
CUUAAGGAGACCAUCUACACGGUUACCUAA | 0.00105 ± 0.0072
CUUAAGGUCUGGAUCGUACUGGGUUACCUAA | 0.00294 ± 0.01
CUUAAGGAGAGGUUGUACUGGGUUACCUAA | 0.000224 ± 0.034
CAAUUCCUCAGGAUCUACUGGGUUACCUUA | 0.604 ± 0.075
CUUAAGGAGACGAUCUACUGGGUACCUAA | 0.000768 ± 0.007
CUUAAGGAGACGAUCUACUGGGUUACCUCAA | 0.00128 ± 0.0052
CUUAAGGAGAGGAUCUACUGGGUUACGAAA | 0.000449 ± 0.021
CUUUUCCUCUGGAUCUACUGCGUUACCUAA | 0.527 ± 0.057
CUUAAGGAGACCUACUACUGGUUACCUAA | 0.00106 ± 0.0086
CUUAAGGAGACGAACUACUGGGUUACCUAA | 0.000341 ± 0.016
CUUAAGGAGACCUUCUACUGGGUUGACCUAA | 0.00198 ± 0.0041
CUAUUCCUCUGGUUCUACUGGGUUUCCUAA | 1.05 ± 0.44
CAAUUCCUCUGAUCUACUGGGUUACCUAA | 0.528 ± 0.061
CUUAAGGAGACCAUCUACGGGUUACCUAA | 0.00289 ± 0.0059
GAAUUCCUCUGGAUCUAACUGGGUUACCUAA | 0.00402 ± 0.0044
CUUAAGGAGACCUAGAUCUGGGUUACUCUAA | 0.00032 ± 0.029
CUUAAGGAGAGGAUCUACUGGGUUUGCUAA | 0.000179 ± 0.037
CUUAAGGAGUGGAUCAACUGGGUUACCAAA | 0.00306 ± 0.0049
CAAUUCCACUGGAUCUACUGGGUUAGCUAA | 0.223 ± 0.076
CUUAAGGAGUGGAUCUAGUGGGUUAGCUAA | 0.000807 ± 0.015
CUUAAGGAGAGGAUCUACUGGGUGACCUAA | 0.00306 ± 0.0058
CUUAAGGAGACCUAGAUGUGGGUUACCUAU [g2:g12:cont:t1U] | 0.000797 ± 0.0082

A second format for part of the listing above:
Sequence,pre-steady-state target cleavage rate
CUUAAGGAGACCUACUACUGGUUACCUAA,0.00106 ± 0.0086
CUUAAGGAGACGAACUACUGGGUUACCUAA,0.000341 ± 0.016
CUUAAGGAGACCUUCUACUGGGUUGACCUAA,0.00198 ± 0.0041
CUAUUCCUCUGGUUCUACUGGGUUUCCUAA,1.05 ± 0.44
CAAUUCCUCUGAUCUACUGGGUUACCUAA,0.528 ± 0.061

Remaining list, next part:

Sequence | pre-steady-state target cleavage rate
CUUAAGGAGACCUAGUACUUGGGUUACCUAA | 0.000503 ± 0.0093
CUUAAGGAGUGGAUCUACUCGGUUAGCUAA | 0.000272 ± 0.044
CUUAAGCUCUGGAUCUACUCCCUUACCUAA | 0.000185 ± 0.037
CUUAAGGAGAGGAACUACUGGGUUACCAAA | 0.000339 ± 0.024
CAAUUCCUCUGGAUCUACUGGGUAACCUAA | 0.263 ± 0.049
CUUAAGGAGACCUAGAUGAGGCUUACCUAA | 0.000367 ± 0.012
CUUAAGGUCUGGAUCUACGUGGGUUACCUAA | 0.000118 ± 0.06
CUUAAGGAGACGAUCUACUGGGUUACCUAU [g2:g19:cont:t1U] | 0.00299 ± 0.004
GAAUUCCUCUGGUUCUACUGGGUAACCUAA | 0.288 ± 0.063
CUUAAGGAGAGGAUCAUCUGGGUUACCUAA | 0.000193 ± 0.032
CUUAAGGAGACCAUCAACUGCGUUACCUAA | 0.00173 ± 0.0029
CUUAAGGACUGGAUCUUCUGGGUUAGCUAA | 0.0075 ± 0.01
CUUAAGGAGACGAUCUACUAGGGUUACCUAA | 0.00264 ± 0.0053
CUUAAGGAGUGGUUCUACUCGGUUACCUAA | 0.00269 ± 0.0098
CUUAAGGAGACCAUCUACUUGGGUUACCUAA | 0.00115 ± 0.0054
CUUAUCCUCUCGAUCUACUGGGUUACCUAA | 0.561 ± 0.04
CAAUUCCUCUGGAUCUACAGGGUUAGCUAA | 0.157 ± 0.054
CUUAAGGAGACCUACUACUGGGUAAGCUAA | 0.000965 ± 0.0072
CUUAAGGUCUGGAUCUACUGGGUAUGCUAA | 0.00313 ± 0.0041
CUUAAGGAGACCUAGAUGAGGGUUACGAUA | 0.000785 ± 0.0076
CUUAAGGAGUGGAACUACUGGGAUACCUAA | 0.00192 ± 0.011
CUUAAGGAGACCUAGAUCUGGGUUCCUAA | 0.000449 ± 0.015
CUUAAGGAGACCUUCUUACUGGGUUACCUAA | 0.00145 ± 0.0069
CUAUUCCUCUGGAUCUACUCCGUUACCUAA | 0.0198 ± 0.0061

Sequence | pre-steady-state target cleavage rate
CUUAAGGAGACCUAGAUCUGUGGUUACCUAA | 0.000401 ± 0.0083
CUUAAGGAGACCUAGUACUGGGUUACUAA | 0.00018 ± 0.033
CUUAAGGAGAGGAUCUACUGGGUUACUAA | 0.000497 ± 0.015
CUUAAGGAGACCAUCAACUGGGUAACCUAA | 0.000431 ± 0.011
CUUAAGGAGACCAUCUACUGGGUAACGUAA | 0.000184 ± 0.037
CUUAAGGAGACCAUCUUCAGGGUUACCUAA | 0.00141 ± 0.009
CUUAAGGACUGAGAUCUACUGGGUUACCUAA | 0.0268 ± 0.028
CUUAUCCUCUGGAUCUACAGGGUUUCCUAA | 0.119 ± 0.02
CUUAAGGAGACGAUCUACUAGGUUACCUAA | 0.00245 ± 0.0049
CUUAAGGAGUGGUUCUUCUGGGUUACCUAA | 0.00197 ± 0.0073
CGAUUCCUCUGGAUCUACUGGGUUACCUAA | 0.329 ± 0.048
CUUAAGCUCUGGAUCUACUGGAGUUACCUAA | 0.00131 ± 0.0063
CUUAAGGAGACCUAGAUGUGGGUUGACCUAA | 0.000404 ± 0.015
CUUAAGGAGACCUUCAACUGCGUUACCUAA | 0.00204 ± 0.0027
CUUAACCUCUGGAUCUACUGGUGUUACCUAA | 0.00188 ± 0.0043
CUUAAGGAGAGGAUCUACUGGGAUACGUAA | 0.0037 ± 0.0066
CUUAAGGUCUGGAUCUACUGGGUUACAUAA | 0.606 ± 0.054
CAAUUCCUCUGGUUCUACUGGGUAACCUAA | 0.162 ± 0.032
CAAUUCCUCUGGAUUACUGGGUUACCUAA | 0.692 ± 0.054
CUUAAGGACUGGAUCUAGUCGGUUACCUAA | 0.000256 ± 0.039
CUUAAGGAGUGGGAUCUACUGGGUUACCUAA | 0.0146 ± 0.0073
CUUAAGGACUGGAUCUACUCGGUUACCAAA | 0.00437 ± 0.013
CUUAAGGACUGGAUCAACUGGGUAACCUAA | 0.00303 ± 0.013
